Test results as given in article PMC11599456.
These are yes or no findings as the source states them, for the method shown. Binding seen in cells or lysates may run through a third protein. Some binding calls cover weakened binding; strength is not graded here. For part of these data: Where a sequence is shown, tags or fusion partners need not be part of it.

Sequences of proteins named here, by UniProt entry; tags and fusion partners are left off.
UniProt O00327: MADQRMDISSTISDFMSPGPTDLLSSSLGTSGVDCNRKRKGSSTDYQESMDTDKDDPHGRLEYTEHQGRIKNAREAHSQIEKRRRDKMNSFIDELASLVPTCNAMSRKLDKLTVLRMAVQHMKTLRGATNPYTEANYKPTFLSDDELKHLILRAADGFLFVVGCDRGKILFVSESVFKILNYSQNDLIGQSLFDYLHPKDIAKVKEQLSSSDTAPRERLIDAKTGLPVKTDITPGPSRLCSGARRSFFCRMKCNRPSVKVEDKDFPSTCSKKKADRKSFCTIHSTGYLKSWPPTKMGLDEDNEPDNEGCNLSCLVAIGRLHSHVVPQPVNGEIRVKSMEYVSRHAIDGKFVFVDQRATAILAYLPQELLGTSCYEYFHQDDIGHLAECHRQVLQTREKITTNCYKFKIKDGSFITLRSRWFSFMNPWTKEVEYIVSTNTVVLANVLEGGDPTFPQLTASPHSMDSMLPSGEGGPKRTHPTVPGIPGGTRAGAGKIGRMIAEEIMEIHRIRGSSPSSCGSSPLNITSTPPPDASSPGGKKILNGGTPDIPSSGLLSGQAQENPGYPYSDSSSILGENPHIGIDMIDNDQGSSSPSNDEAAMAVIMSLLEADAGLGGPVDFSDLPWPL
UniProt P55060: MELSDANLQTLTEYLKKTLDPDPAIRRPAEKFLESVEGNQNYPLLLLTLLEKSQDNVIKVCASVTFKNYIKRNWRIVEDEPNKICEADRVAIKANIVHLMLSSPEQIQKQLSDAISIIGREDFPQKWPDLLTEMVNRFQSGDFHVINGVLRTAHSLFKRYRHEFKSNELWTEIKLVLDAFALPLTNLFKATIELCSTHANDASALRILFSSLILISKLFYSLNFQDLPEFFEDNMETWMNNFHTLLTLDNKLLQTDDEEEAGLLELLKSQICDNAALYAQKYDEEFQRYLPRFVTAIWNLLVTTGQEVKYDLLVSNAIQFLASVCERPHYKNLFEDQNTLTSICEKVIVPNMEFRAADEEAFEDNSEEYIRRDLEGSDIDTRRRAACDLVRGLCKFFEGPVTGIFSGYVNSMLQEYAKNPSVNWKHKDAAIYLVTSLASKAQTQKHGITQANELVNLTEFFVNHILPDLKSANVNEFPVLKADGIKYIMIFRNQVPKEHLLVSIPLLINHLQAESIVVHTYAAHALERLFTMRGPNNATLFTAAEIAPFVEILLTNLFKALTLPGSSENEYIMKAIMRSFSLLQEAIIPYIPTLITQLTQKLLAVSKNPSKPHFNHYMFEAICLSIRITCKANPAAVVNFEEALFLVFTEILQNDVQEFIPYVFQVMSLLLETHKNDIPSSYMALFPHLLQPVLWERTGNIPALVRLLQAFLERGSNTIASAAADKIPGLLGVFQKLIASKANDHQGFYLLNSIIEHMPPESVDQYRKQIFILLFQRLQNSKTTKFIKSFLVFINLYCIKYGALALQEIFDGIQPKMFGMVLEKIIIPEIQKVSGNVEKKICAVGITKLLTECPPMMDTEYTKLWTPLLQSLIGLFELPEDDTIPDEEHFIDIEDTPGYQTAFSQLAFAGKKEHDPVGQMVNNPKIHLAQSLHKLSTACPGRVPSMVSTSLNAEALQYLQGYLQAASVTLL
UniProt O15131: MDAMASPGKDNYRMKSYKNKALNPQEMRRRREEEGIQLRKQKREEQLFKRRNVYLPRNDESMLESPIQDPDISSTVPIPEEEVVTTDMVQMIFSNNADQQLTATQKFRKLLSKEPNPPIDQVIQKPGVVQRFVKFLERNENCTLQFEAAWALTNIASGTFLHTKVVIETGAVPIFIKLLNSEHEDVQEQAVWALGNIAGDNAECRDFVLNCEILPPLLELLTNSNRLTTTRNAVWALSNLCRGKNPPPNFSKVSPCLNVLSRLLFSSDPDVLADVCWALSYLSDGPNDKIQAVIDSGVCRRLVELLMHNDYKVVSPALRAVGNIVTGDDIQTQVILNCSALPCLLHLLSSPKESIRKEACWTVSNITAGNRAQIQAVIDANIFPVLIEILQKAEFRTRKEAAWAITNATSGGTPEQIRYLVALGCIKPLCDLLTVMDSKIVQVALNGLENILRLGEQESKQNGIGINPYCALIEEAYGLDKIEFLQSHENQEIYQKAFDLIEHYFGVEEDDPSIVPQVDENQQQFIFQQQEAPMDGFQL
UniProt Q92973: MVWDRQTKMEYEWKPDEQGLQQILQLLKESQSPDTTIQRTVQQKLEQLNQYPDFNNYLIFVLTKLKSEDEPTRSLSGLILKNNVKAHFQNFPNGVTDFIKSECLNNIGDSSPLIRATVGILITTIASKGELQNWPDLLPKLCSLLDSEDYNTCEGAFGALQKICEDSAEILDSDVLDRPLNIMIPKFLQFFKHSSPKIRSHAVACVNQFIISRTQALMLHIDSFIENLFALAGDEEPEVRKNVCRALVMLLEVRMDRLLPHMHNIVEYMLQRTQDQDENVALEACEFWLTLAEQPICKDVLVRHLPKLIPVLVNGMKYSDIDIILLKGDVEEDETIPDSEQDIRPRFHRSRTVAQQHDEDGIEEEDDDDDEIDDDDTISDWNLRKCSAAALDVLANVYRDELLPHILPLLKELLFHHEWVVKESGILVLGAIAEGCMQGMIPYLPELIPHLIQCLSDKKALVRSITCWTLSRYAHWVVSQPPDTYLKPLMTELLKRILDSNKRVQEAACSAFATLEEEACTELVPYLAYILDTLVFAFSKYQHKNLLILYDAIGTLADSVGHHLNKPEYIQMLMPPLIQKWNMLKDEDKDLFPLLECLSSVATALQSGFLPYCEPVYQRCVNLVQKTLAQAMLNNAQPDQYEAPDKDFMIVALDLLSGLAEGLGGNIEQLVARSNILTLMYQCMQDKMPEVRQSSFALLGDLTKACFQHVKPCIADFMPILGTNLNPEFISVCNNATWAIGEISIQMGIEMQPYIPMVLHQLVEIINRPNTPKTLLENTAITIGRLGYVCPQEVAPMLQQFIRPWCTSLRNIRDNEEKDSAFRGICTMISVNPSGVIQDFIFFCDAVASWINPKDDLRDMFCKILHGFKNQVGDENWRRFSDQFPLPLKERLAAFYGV

Tests used:
[1] = biological target: T1, 5 × Myc-6 × His tagged CHRONO, transiently expressed from pcDNA3.1 (+) (human) (UniProt Q8N365); assay: co-IP; HEK293T cotransfected with 5m6h-CHRONO and Flag-HA transporter (pcDNA3.1 (+)); whole cell lysate precipitated with anti-Myc antibody and Protein G magnetic beads, 4 °C overnight; blot with anti-Flag
T1 sequence: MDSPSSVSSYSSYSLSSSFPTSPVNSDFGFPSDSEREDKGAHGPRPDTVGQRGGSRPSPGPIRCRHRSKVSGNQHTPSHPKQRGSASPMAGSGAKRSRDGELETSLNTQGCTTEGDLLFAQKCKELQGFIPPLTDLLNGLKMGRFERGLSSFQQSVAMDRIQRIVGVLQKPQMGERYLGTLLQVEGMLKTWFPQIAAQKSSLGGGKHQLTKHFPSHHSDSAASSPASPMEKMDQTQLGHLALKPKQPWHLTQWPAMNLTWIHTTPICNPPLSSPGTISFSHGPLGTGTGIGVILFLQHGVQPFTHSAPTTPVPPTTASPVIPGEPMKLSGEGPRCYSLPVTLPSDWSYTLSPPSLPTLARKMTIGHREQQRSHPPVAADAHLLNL

[2] = biological target: T1, 5 × Myc-6 × His tagged CHRONO, transiently expressed from pcDNA3.1 (+) (human); assay: co-IP; Flag labeled BMAL1 and Myc labeled CHRONO, each precipitated in turn with antibodies (reciprocal); cells not given
[3] = biological target: Flag labeled BMAL1 (UniProt O00327); assay: as above
[4] = biological target: Flag-HA tagged CSE1L (UniProt P55060); assay: co-IP; reciprocal: Flag-tagged transporter precipitated with anti-Flag antibody, Myc-labeled CHRONO detected by blot (Fig. S4)
[5] = biological target: Flag-HA tagged KPNA5 (UniProt O15131); assay: as above
[6] = biological target: Flag-HA tagged KPNB2 (UniProt Q92973); assay: as above
[7] = biological target: endogenous CSE1L of U2OS cells (human (endogenous in U2OS)) (UniProt P55060); assay: co-IP; nuclear extract of U2OS cells; KPNA5, KPNB2 or CSE1L precipitated individually with antibodies to each transporter; endogenous CHRONO detected by Western blot
[8] = biological target: endogenous KPNA5 of U2OS cells (human (endogenous in U2OS)) (UniProt O15131); assay: as above
[9] = biological target: endogenous KPNB2 of U2OS cells (human (endogenous in U2OS)) (UniProt Q92973); assay: as above

## Flag-HA tagged KPNB2 (from UniProt Q92973 1-898)
[1]
  binding: binds

## Flag-HA tagged KPNA5 (from UniProt O15131 1-539)
[1]
  binding: binds

## Flag-HA tagged CSE1L (from UniProt P55060 1-971)
[1]
  binding: binds

## Flag labeled BMAL1 (from UniProt O00327 1-626)
[2]
  binding: binds

B1: 5 × Myc-6 × His tagged CHRONO, transiently expressed from pcDNA3.1 (+) (protein, UniProt Q8N365 1-385)
chain: T1 sequence
[3]
  binding: binds
[4]
  binding: binds
[5]
  binding: binds
[6]
  binding: binds

B2: endogenous CHRONO of U2OS cells (protein, UniProt Q8N365 1-385)
chain: T1 sequence
[7]
  binding: binds
[8]
  binding: binds
[9]
  binding: binds

B3: Flag-HA tagged TNPO2 (protein, UniProt O14787 1-897)
chain: MDWQPDEQGLQQVLQLLKDSQSPNTATQRIVQDKLKQLNQFPDFNNYLIFVLTRLKSEDEPTRSLSGLILKNNVKAHYQSFPPPVADFIKQECLNNIGDASSLIRATIGILITTIASKGELQMWPELLPQLCNLLNSEDYNTCEGAFGALQKICEDSSELLDSDALNRPLNIMIPKFLQFFKHCSPKIRSHAIACVNQFIMDRAQALMDNIDTFIEHLFALAVDDDPEVRKNVCRALVMLLEVRIDRLIPHMHSIIQYMLQRTQDHDENVALEACEFWLTLAEQPICKEVLASHLVQLIPILVNGMKYSEIDIILLKGDVEEDEAVPDSEQDIKPRFHKSRTVTLPHEAERPDGSEDAEDDDDDDALSDWNLRKCSAAALDVLANVFREELLPHLLPLLKGLLFHPEWVVKESGILVLGAIAEGCMQGMVPYLPELIPHLIQCLSDKKALVRSIACWTLSRYAHWVVSQPPDMHLKPLMTELLKRILDGNKRVQEAACSAFATLEEEACTELVPYLSYILDTLVFAFGKYQHKNLLILYDAIGTLADSVGHHLNQPEYIQKLMPPLIQKWNELKDEDKDLFPLLECLSSVATALQSGFLPYCEPVYQRCVTLVQKTLAQAMMYTQHPEQYEAPDKDFMIVALDLLSGLAEGLGGHVEQLVARSNIMTLLFQCMQDSMPEVRQSSFALLGDLTKACFIHVKPCIAEFMPILGTNLNPEFISVCNNATWAIGEICMQMGAEMQPYVQMVLNNLVEIINRPNTPKTLLENTGRLTSPSAIPAITIGRLGYVCPQEVAPMLQQFIRPWCTSLRNIRDNEEKDSAFRGICMMIGVNPGGVVQDFIFFCDAVASWVSPKDDLRDMFYKILHGFKDQVGEDNWQQFSEQFPPLLKERLAAFYGV
[1]
  binding: binds
